Laboratory results reported in PMC2764382.
No constants are given. Whether binding was seen depends on the method and setting. In cells and extracts the contact can be indirect. Where a sequence is shown, tags or fusion partners need not be part of it.

Target: Purified GST (glutathione S-transferase)
Assay: pull-down; GST pull-down as described (Poon et al., 2004); GST fusion proteins purified on glutathione sepharose beads as bait, HA-Pdzd2(C) as prey

B1: haemagglutinin (HA)-tagged rat Pdzd2 C-terminal fragment (201aa), GFP-fused (domain or fragment, UniProt Q9QZR8 2567-2766)
chain: GGADVEPKSVMVHRVFSQGVASQEGTVSRGDFLLSVNGTSLAGLAHSEVTKVLHQAELHKHALMIIKKGNDQPGPSFKQEPPSANGKGPFPRRTLPLEPGAGRNGAAHDALCVEVLKTSAGLGLSLDGGKSSVSGEGPLVIKRVYKGGAAERAGTIEAGDEILAINGKPLVGLVHFDAWNIMKSVPEGPVQLVIRKHRDS
- binding: no binding
